Our source for the binding values is paper PMC7090148 (2020).

Substitutions are numbered along the chain they refer to. These are yes or no findings as the source states them, for the method shown. In cells and extracts the contact can be indirect. Binding calls can cover weak binding; strength is not graded here.

The target of one experiment is T1, Mouse OFD1 A80T (mouse) (UniProt Q80Z25).
T1 sequence: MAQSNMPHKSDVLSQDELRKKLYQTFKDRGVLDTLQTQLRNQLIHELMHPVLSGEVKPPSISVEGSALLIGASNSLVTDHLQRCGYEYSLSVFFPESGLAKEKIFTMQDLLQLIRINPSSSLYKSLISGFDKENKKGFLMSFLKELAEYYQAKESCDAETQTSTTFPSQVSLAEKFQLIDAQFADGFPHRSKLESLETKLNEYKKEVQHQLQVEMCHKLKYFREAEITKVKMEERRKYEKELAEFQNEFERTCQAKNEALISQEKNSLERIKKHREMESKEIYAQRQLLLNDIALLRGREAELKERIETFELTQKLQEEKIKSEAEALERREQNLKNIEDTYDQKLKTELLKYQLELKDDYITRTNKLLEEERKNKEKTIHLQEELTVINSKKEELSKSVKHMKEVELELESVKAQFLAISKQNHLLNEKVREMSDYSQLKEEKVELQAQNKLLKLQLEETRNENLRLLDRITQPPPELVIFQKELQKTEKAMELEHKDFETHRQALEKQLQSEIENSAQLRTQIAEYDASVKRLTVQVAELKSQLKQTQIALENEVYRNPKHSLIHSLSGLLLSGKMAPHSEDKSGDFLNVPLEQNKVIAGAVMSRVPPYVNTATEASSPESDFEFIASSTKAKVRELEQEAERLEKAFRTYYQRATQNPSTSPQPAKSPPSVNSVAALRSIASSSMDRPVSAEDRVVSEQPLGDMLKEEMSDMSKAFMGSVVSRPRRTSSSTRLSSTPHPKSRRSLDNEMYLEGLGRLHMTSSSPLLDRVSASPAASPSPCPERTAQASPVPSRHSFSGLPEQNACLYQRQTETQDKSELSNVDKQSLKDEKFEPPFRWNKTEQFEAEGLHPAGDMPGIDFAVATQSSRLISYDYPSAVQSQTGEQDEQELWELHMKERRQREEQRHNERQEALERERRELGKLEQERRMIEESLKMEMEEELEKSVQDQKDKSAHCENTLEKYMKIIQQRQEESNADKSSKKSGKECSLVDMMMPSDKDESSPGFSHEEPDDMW
In words: co-IP; OFD1 mutants co-expressed with TRAPPC8 or TRAPPC12; IP efficiency as ratio of immunoprecipitated TRAPPC8/OFD1 or TRAPPC12/OFD1; cell line and IP antibody not stated for this panel.

For the next experiment, the target named is T2, Mouse OFD1 S75F (mouse) (UniProt Q80Z25).
T2 sequence: T1 sequence with S73F, T78A
The experiment is described as above.

As to NTAP-tagged TRAPPC8 (mouse), the binding entry with Mouse OFD1 A80T (mouse) and with Mouse OFD1 S75F (mouse) was “binds” in each case.
